From PubChem BioAssay AID1688 (National Center for Advancing Translational Sciences (NCATS), 2009)
The campaign covered roughly 220,000 compounds. About 2,400 (1.1%) were called active. The shares of active, inactive and inconclusive entries below differ from those in the screen. Calls follow the shape of the dose curve; as a rule, active = well fitted inhibition curve with a large enough effect; inconclusive = small, poorly fitted or top-dose-only effect, or effect the other way; inactive = no such curve, though single readings can be large or run the other way. A potency beside an inconclusive call is a rough fit, not a confirmed value.
% is scaled to controls: 0 for no effect and ±100 for the full control effect; potency is read from the fitted curve at half-maximal effect.

Assay: qHTS Multiplex Assay to Identify Dual Action Probes in a Cell Model of Huntington: Aggregate Formation (GFP); also: nearly all actives have a fitted effect of over 60% in size
Conditions: PC12 HttQ103-GFP aggregates, Acumen cytometry, 40 h; activity change, negative = inhibition: at 46.1 µM (top of the series) unless noted
Outline: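 Steps: seed 1500 PC12 HTTQ103-GFP cells/well; add tebufenozide, 100 nM final; add compound titration; add ATPLite reagent; quantify GFP aggregates by laser scanning cytometry.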
For `COc1cccc(NC(=O)CCCOc2cc(=O)n(C)c3ccccc23)c1`, the Potency was inconclusive: 15.8 µM [activator, partial curve].
In the case of `CCc1cc2cc3c(cc2nc1SCC(=O)Nc1nnc(C)s1)OCCO3`, the “activity change, negative = inhibition” value is reported as inactive: 2.35%.
In the case of `O=C(CCl)Nc1cn(-c2ccccc2)nc1-c1ccccc1`, the Potency is reported as active: 22.4 µM.
With `Cc1ccc(CNC(=O)c2ccc([N+](=O)[O-])o2)cc1` the Potency was inconclusive: 31.6 µM [inhibitor, single point].
With `O=C(NCC1COc2ccccc2O1)C1CCCN(S(=O)(=O)c2cccc3nsnc23)C1` (stereo unspecified) the “activity change, negative = inhibition” value was inactive: -25%.
With `CCOC(=O)C1(Cc2cccc(OC)c2)CCN(Cc2cccc3cnccc23)CC1` the Potency was inconclusive: 20 µM [inhibitor, partial curve, poor fit].
In the case of `Cc1cccc(N2CCN(C(c3ccccc3)c3nnnn3CC3CCCO3)CC2)c1C` (stereo unspecified), the Potency is reported as inconclusive: 22.4 µM [inhibitor, single point].
In the case of `[O-]c1n[n+](-c2ccc(Cl)cc2Cl)cc2ccccc12`, the Potency is reported as inconclusive: 17.8 µM [activator, partial curve].
In the case of `CCc1ccccc1NC(=O)CN(C)C(=O)Cn1ncc(Cl)c(Cl)c1=O`, the Potency is reported as inconclusive: 22.4 µM [inhibitor, single point].
With `Cc1ccccc1OCC(=O)NNC(=S)NC(=O)c1ccco1` the Potency was inconclusive: 25.1 µM [inhibitor, single point].
In the case of `Cc1nc(Nc2c(Cl)cccc2Cl)sc1C(=O)Nc1ccccc1`, the Potency is reported as active: 11.2 µM.
For `COc1cccc(OCCn2cc(/C=N/NC(=O)c3ccncc3)c3ccccc32)c1`, the “activity change, negative = inhibition” value was inactive: 5.79%.
For `CCOC(=O)c1c(/N=C/N(C)C)sc(C(=O)OC)c1C`, the Potency was inconclusive: 35.5 µM [inhibitor, partial curve].
With `Cc1csc2ncnc(NCCc3ccccn3)c12` the Potency was inconclusive: 3.98 µM [inhibitor, partial curve].
In the case of `CCc1ccc(NC(=O)c2noc3c2CCC3)cc1`, the “activity change, negative = inhibition” value is reported as inactive: 11.9%.
In the case of `CN(Cc1cccc(Cl)c1Cl)C(=O)c1ccc(NC(=O)CC#N)cc1`, the “activity change, negative = inhibition” value is reported as inactive: 13.2%.
In the case of `CN1CCCC(CC2Oc3ccccc3Sc3ccccc32)C1` (stereo unspecified), the Potency is reported as inconclusive: 35.5 µM [inhibitor, single point].
For `O=C(Nc1ncc(Br)s1)C(Cc1ccccc1)n1cccc1` (stereo unspecified), the Potency was inconclusive: 35.5 µM [inhibitor, single point].
With `COc1cc(NC(=O)CN2C(=O)NC(c3ccccc3)(c3ccccc3)C2=O)c(C)cc1[N+](=O)[O-]` the “activity change, negative = inhibition” value was inactive: -4.32%.
For `c1ccc2sc(Sc3ncnc4sccc34)nc2c1`, the Potency was inconclusive: 20 µM [inhibitor, single point].
In the case of `CCCCN1C(=O)/C(=C/C=C2\SCCN2C)SC1=S`, the Potency is reported as inconclusive: 35.5 µM [inhibitor, single point].
For `Cn1c(=O)c2c(nc(N3CCOCC3)n2C)n(C)c1=O`, the Potency was inconclusive: 5.62 µM [inhibitor, single point].
In the case of `COc1ccc2oc(=O)c(/C(C)=N/NC(=O)c3ccncc3)cc2c1`, the Potency is reported as inconclusive: 17.8 µM [inhibitor, single point].
In the case of `Cc1ccccc1Cn1cc(S(=O)(=O)CC(=O)Nc2nccs2)c2ccccc21`, the Potency is reported as inconclusive: 35.5 µM [inhibitor, single point].
In the case of `COC(=O)c1ccccc1NC(=O)C12CCC(C)(C(=O)O1)C2(C)C` (stereo unspecified), the Potency is reported as inconclusive: 0.282 µM [inhibitor, full curve, poor fit].
With `CC(C)CNC(=S)NC1CCCC1` the Potency was inconclusive: 25.1 µM [inhibitor, partial curve].
In the case of `COc1cccc(CNc2cnc3ccccc3c2)c1O`, the Potency is reported as inconclusive: 12.6 µM [inhibitor, partial curve].
In the case of `C/C(=N\NC(=O)c1ccco1)c1ccc(NC(=O)c2ccccc2)cc1`, the Potency is reported as inconclusive: 35.5 µM [inhibitor, single point].
For `CC(=O)N1CCN(CC(=O)Nc2cc(S(=O)(=O)N3CCOCC3)ccc2C)CC1`, the “activity change, negative = inhibition” value was inactive: -2.67%.
In the case of `O=C(c1ccncc1)c1ccc(NC(=O)c2cccs2)cc1`, the Potency is reported as inconclusive: 35.5 µM [inhibitor, single point].
With `Cc1nc(Cl)c2c(n1)N(CC(N)=O)C(=O)CO2` the “activity change, negative = inhibition” value was inactive: -9.62%.
In the case of `CCOC(=O)N1CCC(N(CCN(C)C)C(=S)Nc2cccc(Cl)c2C)CC1`, the Potency is reported as inconclusive: 1.26 µM [activator, single point].
In the case of `Nc1nc(Cl)nc2ccc(Br)cc12`, the Potency is reported as inconclusive: 35.5 µM [inhibitor, single point].
In the case of `Cc1ccccc1OCCCC(=O)Nc1ccc2c(c1)OCO2`, the Potency is reported as inconclusive: 0.891 µM [activator, single point].
For `CCn1cc[n+](C)c1P(c1ccccc1)c1ccccc1`, the Potency was inconclusive: 11.2 µM [inhibitor, single point].
For `Cc1ccccc1C(=O)Nc1nnc(-c2ccc(F)cc2)o1`, the Potency was active: 10 µM.
In the case of `COc1ccc(O)c(-c2[nH]ncc2C(=O)c2ccccc2)c1`, the Potency is reported as inconclusive: 25.1 µM [inhibitor, single point].
In the case of `CCN(CCO)c1cc(Cl)nc(SC)n1`, the Potency is reported as inconclusive: 5.62 µM [inhibitor, single point].
In the case of `COc1ccccc1-c1cc(C(F)(F)F)nc(S(=O)(=O)CCCC(=O)N2CCCCC2C)n1` (stereo unspecified), the Potency is reported as inconclusive: 35.5 µM [inhibitor, single point].
With `O=[N+]([O-])c1ccc(Oc2cccc3cccnc23)c([N+](=O)[O-])c1` the Potency was active: 22.4 µM.
With `N#Cc1ccc(/C=C/C(=O)c2ccco2)cc1` the Potency was inconclusive: 3.55 µM [activator, single point].
With `CCOc1ccc(OCC)c(-c2c(=O)n(OCc3ccccc3C(=O)OC)c3ccccc3[n+]2[O-])c1` the Potency was inconclusive: 3.16 µM [activator, partial curve].
In the case of `Cc1nnc(SCCCN2C(=O)c3ccccc3C2=O)o1`, the “activity change, negative = inhibition” value is reported as inactive: -14.8%.
In the case of `COc1ccc(/C=C/C(=O)OCCC(C)C)cc1`, the “activity change, negative = inhibition” value is reported as inactive: 1.34%.
With `Cc1cc(Cl)c(OCCCSc2nc(C)cc(=O)[nH]2)c(Br)c1` the Potency was inconclusive: 35.5 µM [inhibitor, partial curve].
For `C=CS(=O)(=O)c1sc(Cl)c(N2CCOCC2)c1[N+](=O)[O-]`, the activity change, negative = inhibition was inactive: -0.272% [at 9.22 µM].
